Laboratory results published in article PMC12670160, “A drug-repurposing screen of FDA- and EMA-approved drugs identifies two NF-κB inhibitors active against eumycetoma” (Journal of Antimicrobial Chemotherapy, 2025).
Counter-ions that a name gives are not always drawn. Out of some 5,300 compounds screened, about 130 (2.5%) showed an effect of 50% or more. The list shows a part of the results.

tested on: M. mycetomatis strain mm55; details: primary screen, metabolic activity vs growth control; 96 h, 2 µM; inhibitor

How did the “% viability” value turn out when `CCCCCNCC(N)=O` [ONC0003718, milacemide] was run?
The value was 96.85%.

`CCN1CCCC1CNC(=O)c1cc(S(N)(=O)=O)ccc1OC` (centres unmarked) [ONC0000700, sulpiride s] was tested. Which “% viability” value did it give?
The value was 135.8%.

For `Cc1cccc(N(C)C(=S)Oc2ccc3ccccc3c2)c1` [ONC0000551, tolnaftate], which “% viability” value is on record?
The value was 107.4%.

Which “% viability” value does the source give for `N[C@@H](COP(=O)(O)O)C(=O)O` [ONC0005313, dexfosfoserine hydrochloride] here?
The value was 116.8%.

How did the “% viability” value turn out when `C=CCNC1=C2C[C@@H](C)C[C@H](OC)[C@H](O)[C@@H](C)/C=C(\C)[C@H](OC(N)=O)[C@@H](OC)/C=C\C=C(/C)C(=O)NC(=CC1=O)C2=O` [ONC0004647, 17aag tanespimycin] was run?
The value was 80.32%.

How did the “% viability” value turn out when `COc1cc2c(cc1OC)CN(C(=O)[C@@H](NCc1ccncc1)C(C)(C)C)CC2` [ONC0002587, tcsox229] was run?
The value was 68.75%.

For `CN1CCN(c2ccc3nc(-c4c(N)c5c(F)cccc5[nH]c4=O)[nH]c3c2)CC1` [ONC0004693, dovitinib tki258 chir258], which “% viability” value is on record?
The value was 146%.

For `O=c1[nH]c(=O)n([C@H]2C[C@H](O)[C@@H](CO)O2)cc1I` [ONC0005008, idoxuridin], which “% viability” value is on record?
Its value is 89.88%.

With `Cc1cnc(C(=O)N[C@H]2CCCCC/C=C\[C@@H]3C[C@@]3(C(=O)NS(=O)(=O)C3CC3)NC(=O)[C@@H]3C[C@@H](Oc4nc5ccccc5c5ccccc45)CN3C2=O)cn1` [ONC0002058, paritaprevir] as the molecule, how does the “% viability” value read?
Its value is 66.53%.

Which “% viability” value does the source give for `Nc1nccc2c1ncn2[C@@H]1C=C(CO)[C@@H](O)[C@H]1O` [ONC0004546, 3deazaneplanocin a dznep hcl] here?
Its value is 65.5%.

`CCCCCCCNS(=O)(=O)c1cccc2c(Cl)cccc12` [ONC0003431, sc10] was tested. Which “% viability” value did it give?
The value was 68.77%.

How did the “% viability” value turn out when `CC1(N2CCC(n3c([C@@H]4CCCNC4)nc4ccccc43)CC2)CCCCCCC1` [ONC0001743, mcoppb] was run?
The value was 92.05%.

How did the “% viability” value turn out when `O=C(O)c1cccnc1` [ONC0000485, niacin] was run?
The value was 75.05%.

Which “% viability” value does the source give for `Cc1cc(C)nc(NS(=O)(=O)c2ccc(NC(=S)NC(=O)COc3ccc(Br)cc3Cl)cc2)n1` [ONC0001646, zcl278] here?
The value was 86.79%.

Which “% viability” value does the source give for `Cn1cc(C2=C(c3cn(C4CCN(Cc5ccccn5)CC4)c4ccccc34)C(=O)NC2=O)c2ccccc21` [ONC0004929, enzastaurin ly317615] here?
The value was 82.68%.

How did the “% viability” value turn out when `NC(=O)c1cc(N2CC2)c([N+](=O)[O-])cc1[N+](=O)[O-]` [ONC0005396, tretazicar] was run?
Its value is 94.69%.

With `CCOc1ccc(Cc2nccc3cc(OCC)c(OCC)cc23)cc1OCC` [ONC0003191, ethaverine hydrochloride] as the molecule, how does the “% viability” value read?
The value was 135.5%.
